Source: patent US6518307B2, “Control of microbial populations in the gastrointestinal tract of animals” (Lynntech, Inc., priority 2000, dated 2003)

How the values were obtained:
[1] = Palatability of peroxy acids in drinking water of broilers (weight change after 2 h); format: in vivo, broiler chickens; conditions: 0.05% in drinking water, two hours after seven-hour water removal
[2] = Acceptance of drinking water biocides by broilers (Examples 1 and 2); format: in vivo

Structure (SMILES): CC(=O)OO [peracetic acid]
- palatability (water consumption, indirectly by weight) [1]: significant water refusal

Structure (SMILES): O=[O+][O-] [Ozone]
- palatability / water refusal in drinking water [2]: very palatable
